# Library screening results

By UniProt entry, the sequences of proteins in these tests, tags left out.
UniProt E9BF75, entry or part of it: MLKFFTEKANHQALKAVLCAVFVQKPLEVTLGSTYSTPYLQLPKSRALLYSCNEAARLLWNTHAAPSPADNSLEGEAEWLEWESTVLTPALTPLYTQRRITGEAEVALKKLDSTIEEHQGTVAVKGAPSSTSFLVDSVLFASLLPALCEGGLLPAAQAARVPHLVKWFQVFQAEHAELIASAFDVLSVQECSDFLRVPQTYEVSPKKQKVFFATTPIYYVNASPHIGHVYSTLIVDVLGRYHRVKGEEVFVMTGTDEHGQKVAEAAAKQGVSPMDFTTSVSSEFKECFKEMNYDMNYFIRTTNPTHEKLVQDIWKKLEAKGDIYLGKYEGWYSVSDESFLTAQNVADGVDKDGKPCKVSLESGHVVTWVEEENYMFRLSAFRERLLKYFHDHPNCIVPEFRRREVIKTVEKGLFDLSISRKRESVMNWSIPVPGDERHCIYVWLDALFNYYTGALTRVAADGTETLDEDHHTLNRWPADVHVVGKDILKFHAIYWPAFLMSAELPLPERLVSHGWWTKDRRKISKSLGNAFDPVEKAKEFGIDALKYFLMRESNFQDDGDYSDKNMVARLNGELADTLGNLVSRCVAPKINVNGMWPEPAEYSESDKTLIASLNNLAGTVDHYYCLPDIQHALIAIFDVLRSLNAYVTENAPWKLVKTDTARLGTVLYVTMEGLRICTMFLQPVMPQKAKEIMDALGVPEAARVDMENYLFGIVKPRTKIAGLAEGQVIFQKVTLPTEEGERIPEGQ

Source: ChEMBL document CHEMBL3988442, “University of Dundee, Small-Polar-MMV Screening Library” (2021).

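Primary screen of methionyl-tRNA synthetase; the read-out is not stated. Target: Methionyl-tRNA synthetase (putative), Leishmania donovani (UniProt E9BF75). The test concentration is not given. Values are per cent inhibition. Of about 68,000 compounds tested this way, about 24 (0.035%) reached 50% or more in at least one test.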

Results are percentages, as filed. The record does not define 0% and 100%; most values in the screen are far below 50% and negative numbers occur (in some assays of this library far below -100). Compounds were drawn at random from those tested, without regard to their results.

structure	inhibition
Cn1cc(C2(C)CN(c3ncccc3C#N)CCO2)cn1 (configuration not stated)	5.866%
CCOC(=O)CC(C)Nc1nc(C2CCCC2)nc2c1cnn2C (configuration not stated)	14.23%
CN(Cc1nc(-c2ccoc2)no1)C1CCCN(c2cccnn2)C1 (configuration not stated)	17.47%
Cc1noc([C@]23COC[C@H]2CN(Cc2cc(C)on2)C3)n1	2.174%
COc1ccccc1Oc1ncccc1CNC(=O)C1(C)CCCNC1 (configuration not stated)	4.963%
c1ccc2c3c([nH]c2c1)C(c1nn[nH]n1)CCC3 (configuration not stated)	12.37%
COc1ccc(NC(=O)Cn2ccc3c(=O)n(C)ccc32)cc1OC	11.83%
Cc1ccc(CN2C[C@H]3C[C@H](C(=O)Nc4cccnc4)[C@@H](C2)O3)cc1	7.463%
CC(C)N1CCCC1c1cc(CCO)[nH]n1 (configuration not stated)	9.006%
CN(C)Cc1cnc2n1CCN(C(=O)C1CC=CC1)CC2	10.95%
Cc1ccccc1-c1cc(C(=O)N2CCn3c(C)nnc3C2)[nH]n1	9.184%
CCCc1nc(N2CCCN(c3ccncc3)CC2)c2cnn(C)c2n1	7.161%
CNc1cc(C(=O)N2CCOC(C(=O)NC3CCCC3)C2)ccn1 (configuration not stated)	3.723%
Cc1nc(CN2CCN(C(=O)c3ccn(C)c(=O)c3)CC2)cs1	15.97%
CCC(Nc1nc(C)nc2onc(C)c12)c1nc(C)c(C)s1 (configuration not stated)	4.02%
c1ccc(C(CNc2ncccn2)N2CCOCC2)nc1 (configuration not stated)	15.53%
COc1ccc(C)cc1CCNS(=O)(=O)c1ccc2c(c1)CCC(=O)N2	5.396%
CC(C(=O)NC(C)(C)C)N1CCC(C(=O)Nc2cnccn2)CC1 (configuration not stated)	7.258%
CSCCCN1CCCC(Cn2ccnc2)C1 (configuration not stated)	12.03%
O=C(c1ccc(Cl)cc1F)N1CCC(Cn2cc(CO)nn2)CC1	14.21%
COc1cccc(-c2cnnc(N(C)CCC3CCCCO3)n2)c1 (configuration not stated)	14.18%
COc1ccc(COCC(O)CNC(=O)c2cnc(C)cn2)cc1 (configuration not stated)	8.333%
CN1[C@H]2CC[C@@H]1CN(c1cc(Sc3cccs3)nc(N)n1)CC2	21.14%
CCCN1CCC(CC(=O)NCCc2nc(C)cc(C)n2)CC1	13.01%
CNC(=O)[C@@H](c1ccccc1OC)N1CCC[C@H]1C(=O)N1CCC1	10.1%
O=C(CCc1nnc(-c2ccccc2)o1)N1CCN(CC2CC2)CC1	16.27%
CC(=O)N1Cc2ccccc2CC1C(=O)Nc1ccc(C)cn1 (configuration not stated)	16.72%
CCc1nsc(N2CCCN(CC(=O)N(C)C3CC3)CC2)n1	8.683%
CC(=O)N1CCC(c2cc(C(F)(F)F)n3ccnc3n2)CC1	7.343%
Cc1cc(C(C)NC(=O)N2CCC(n3cncn3)CC2)c(C)s1 (configuration not stated)	4.225%
CCc1ncc(C(=O)NCCN2CCNC2=O)cn1	19.05%
CC(C)c1cc(C(=O)N2CCCC(Cn3cc(CO)nn3)C2)on1 (configuration not stated)	18.75%
COCCN(Cc1ccccn1)C(=O)Nc1cccnc1N1CCCC1	13.17%
Cc1cc(C)n(CC2CN(Cc3nc(C)c(C)o3)CCO2)n1 (configuration not stated)	19.13%
CC(C)c1nn(C)c(N(C)C)c1CNC1CCC(O)CC1 (configuration not stated)	19.16%
COc1ccc2c(c1)C(NCCc1c(C)noc1C)CCCO2 (configuration not stated)	8.935%
CN(Cc1cccnc1)CC1CC12CCN(Cc1nccs1)CC2 (configuration not stated)	7.958%
NC(=O)Nc1cccc(C(=O)N(Cc2ccc(F)cc2)C2CC2)c1	8.71%
CCc1nccn1-c1cncc(C2CCCN2Cc2ccc(F)cc2)n1 (configuration not stated)	10.84%
CNC(=O)c1cc(-c2ccccc2OC)[nH]n1	14.72%
O=C(NCC1CC1)[C@H]1C[C@H]2OCC[C@H]2N(Cc2ccoc2)C1	11.11%
O=C1N(CCC2CCCCC2)CCCC1(O)CNCCc1ccccc1 (configuration not stated)	22.07%
COCC1CN(C(=O)c2ccccn2)Cc2nccn2C1 (configuration not stated)	13.42%
CS(=O)(=O)N1CCCC(C(=O)N2CCOc3ccccc32)C1 (configuration not stated)	10.65%
O=C(NCc1cccc(F)c1)N1CCc2ncnc(NC3CC3)c2CC1	13.44%
O=C(NC1CC1)[C@H]1CC[C@@H]2[C@@H](CCN2CCOCc2ccccc2)O1	11.2%
c1cc(NC2CC3(CCN(Cc4cc[nH]n4)C3)C2)ncn1 (configuration not stated)	12.67%
Cc1nn(C)c2nc(N(CCN(C)C)C3CCCC3)sc12	2.506%
Cc1cc(NC(=O)NCC(O)c2ccc(F)cc2)n(C)n1 (configuration not stated)	18.42%
O=C(NCc1ccncc1)c1nc2c(o1)CN(C(=O)c1cccnc1)C2	18.52%
COc1cccc(COc2nc(C(C)C)no2)c1	-0.303%
O=C(NC1CC1)[C@@H]1CCO[C@@H]2CCN(C3CCCC3)C[C@H]21	18.52%
Cc1cnn(C2CCCN(C(=O)c3cn4cccnc4n3)C2)c1 (configuration not stated)	15.69%
CCCS(=O)(=O)N1CCCC(c2cccc(C(=O)O)c2)C1 (configuration not stated)	4.27%
Cc1cnccc1CN1Cc2ccccc2O[C@]2(CC[C@H](CO)CC2)C1	7.345%
CN(C)C(=O)c1cc2ncc(C(=O)NC3CCCC3)cc2n1C	12.5%
Cc1noc(C)c1S(=O)(=O)N(CC(N)=O)CC(C)C	9.966%
CCc1nc(CNCC2CCCN2c2cccnn2)cs1 (configuration not stated)	14.21%
CC(=O)Nc1nc(CS(=O)(=O)CCCc2ccccc2)cs1	8.527%
COc1ccccc1-c1cc(C(=O)N(C)C)c2cnn(C)c2n1	-2.857%
CC1(C)CN(CCC(=O)NCc2cccc(Cl)c2)CC[C@]1(C)O	11.27%
COc1nccc(N2CC[C@@H](N3CCC(O)CC3)[C@H](O)C2)c1C#N	0.8475%
CNC(=O)[C@H]1C[C@@H]2CN(S(=O)(=O)Cc3ccccc3)C[C@@H]2N1C	8.889%
CC1CCCCN1C(=O)CCc1nnc(-c2ccccc2)o1 (configuration not stated)	1.681%
CN(C)C(=O)C1CCN(C(=O)c2c[nH]c3cc(Cl)ccc23)CC1	24.46%
COc1ccc(C(=O)C2CCCN(Cc3ccncc3)C2)cc1OC (configuration not stated)	14.37%
COc1ccc(NC(=O)C2OC(c3cccs3)=NN2C(C)=O)cc1OC (configuration not stated)	10.28%
CC(C)C1CN(S(=O)(=O)N2CCCC2)CCCN1Cc1ccc(F)cc1 (configuration not stated)	14.21%
O=C(c1ccnnc1)N1C[C@@H]2COC[C@]2(COCC2CC2)C1	6%
CCc1noc(CNc2cccc(C(=O)N3CCSCC3)c2)n1	5.974%
CNS(=O)(=O)c1ccc(CNC(=O)c2cc(-c3ccccn3)no2)cc1	18.4%
O=C(c1cc(=O)n(-c2ccccc2)[nH]1)N1CCOCC(O)C1 (configuration not stated)	5%
COc1ccc(N2CCN(C(=O)OC(C)(C)C)C(C(=O)O)C2)cc1 (configuration not stated)	8.399%
C=C(C)COc1cccc(C(=O)N(CC)Cc2noc(C)n2)c1	18.73%
CC(C)Nc1ncnc2c1CCN(C(=O)c1ccncc1F)CC2	11.78%
Cc1ccc(C(O)CNC(=O)NCc2nc(C)cs2)cc1 (configuration not stated)	13.41%
CCN(C)CCNC(=O)Cc1nc(-c2ccco2)oc1C	14.08%

4 of the entries, repeated:

| structure | inhibition |
|---|---|
| `CCc1ncc(C(=O)NCCN2CCNC2=O)cn1` | 19.05% |
| `COc1cccc(-c2cnnc(N(C)CCC3CCCCO3)n2)c1` (configuration not stated) | 14.18% |
| `CCN(C)CCNC(=O)Cc1nc(-c2ccco2)oc1C` | 14.08% |
| `Cc1noc(C)c1S(=O)(=O)N(CC(N)=O)CC(C)C` | 9.966% |